The list shows a part of the results, in another mix than the full data. Inconclusive results are not listed. The source made the active and inactive calls. Calls come from the whole dose curve; as a rule, active = well fitted curve in the direction sought with a large enough effect; inconclusive = small, poorly fitted or top-dose-only effect, or another doubt; inactive = no such curve, though single readings can be large; an effect the other way counts as inactive or inconclusive.
What was measured:
[1] = BET inhibitor-based combinations targeting novel dependencies in MECOM-rearranged (r) AML: SET-2 cell line (AID 2202231); conditions: SET-2 AML cells viability, CellTiter-Glo luminescence, 48 h; note: nearly all actives have a fitted effect of over 35% in size
Excerpt: (§1) Ecotropic viral insertion site 1 (EVI1) is located on chromosome 3q26.2 as part of the MECOM (MDS and EVI1 complex) locus. Under normal hematopoiesis, EVI1 is a regulator of hematopoietic stem cell maintenance and self-renewal and EVI1 levels decrease as the cells differentiate. In approximately 5-10% of de novo acute myeloid leukemia (AML) EVI1 is aberrantly expressed, including Chromosomal inv(3)(q21;q26.2) or t(3;3)(q21;q26.2) alterations (MECOM-r) that account for about 50% of AML with EVI1 overexpression 31. AMLs with high levels of EVI1 have a poor prognosis and an overall survival time averaging between 10-14 months. EVI1 overexpression confers resistance in leukemia cells, highlighting the need to develop new targeted therapies for EVI1 overexpressing AMLs. […]
(§2) A collection of 2480 mechanistically annotated dugs (MIPE v5.0) was used to screen four 3q26.2 rearranged AML cell lines and three non-3q26.2 rearranged AML cell lines. […] Cell viability was determined by luminescence based, Cell Titer Glo assay (Promega). […] Luminescence readings were taken using a Viewlux (PerkinElmer) with a 2 s exposure time per plate. […] Quantitative drug activity data from dose-response curves was determined utilizing area Under the Curve (AUC) and Z-transformed AUC (Z-AUC, a mean-centering transformation applied to each individual cell-line screened).

[2] = BET inhibitor-based combinations targeting novel dependencies in MECOM-rearranged (r) AML: MV-4-11 cell line (AID 2202233); conditions: MV-4-11 AML viability, CellTiter-Glo luminescence, 48 h; note: nearly all actives have a fitted effect of over 45% in size
Excerpt: as §1, §2

[3] = BET inhibitor-based combinations targeting novel dependencies in MECOM-rearranged (r) AML: HNT-34 cell line (AID 2202234); conditions: HNT-34 AML viability, CellTiter-Glo luminescence, 48 h; note: nearly all actives have a fitted effect of over 35% in size
Method in brief: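 Normalized to DMSO and empty-well controls, the luminescence data from CellTiter-Glo after 48 hr drug exposure were fitted across 11 concentrations. Reported metrics are area under the dose-response curve and its Z-transformed form.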

[4] = BET inhibitor-based combinations targeting novel dependencies in MECOM-rearranged (r) AML: AML-191 cell line (AID 2202236; note: nearly all actives have a fitted effect of over 35% in size); conditions: AML-191 viability, CellTiter-Glo luminescence, 48 h
Excerpt: as §1, §2

Measured: Potency
Potency is the fitted concentration of half-maximal effect.

CN[C@@H]1C[C@H]2O[C@@](C)([C@@H]1OC)n1c3ccccc3c3c4c(c5c6ccccc6n2c5c31)C(=O)NC4
active: [1] 0.186 µM | [2] 0.0074 µM | [3] 0.0934 µM | [4] 0.0295 µM

Source: PubChem BioAssay (NCATS)
